Earlier results in patent US20150265621A1, “Treating Bronchiectasis With Doxofylline and Erdosteine” (Alitair Pharmaceuticals, Inc., priority 2014, published 2015).
At least one structure is not confirmed: it was looked up by name or label, or the drawing left a doubt.

Tested on: bronchiectasis patients
Settings: 500 ug inhaled twice per day; cited from earlier work

In the case of `C[C@@H]1C[C@H]2[C@@H]3C[C@H](F)C4=CC(=O)C=C[C@]4(C)[C@@]3(F)[C@@H](O)C[C@]2(C)[C@@]1(O)C(=O)SCF` [fluticasone], the “clinical outcome compared to placebo” value is listed as “clinical improvement”.
